Laboratory results reported in paper PMC4506996.
Results are given in words; binding and its absence hold for the method and conditions named. In cells and extracts the contact can be indirect. Some results given as binding are weak or reduced against the parent protein; the word gives no strength. Tags and fused reporters may be left off the sequences shown.

Target: T1, dGars::EGFP (Drosophila glycyl-tRNA synthetase with a C-terminal 2xTY1-EGFP-3xFLAG tag) (Drosophila) (UniProt Q9VUK8)
T1 sequence: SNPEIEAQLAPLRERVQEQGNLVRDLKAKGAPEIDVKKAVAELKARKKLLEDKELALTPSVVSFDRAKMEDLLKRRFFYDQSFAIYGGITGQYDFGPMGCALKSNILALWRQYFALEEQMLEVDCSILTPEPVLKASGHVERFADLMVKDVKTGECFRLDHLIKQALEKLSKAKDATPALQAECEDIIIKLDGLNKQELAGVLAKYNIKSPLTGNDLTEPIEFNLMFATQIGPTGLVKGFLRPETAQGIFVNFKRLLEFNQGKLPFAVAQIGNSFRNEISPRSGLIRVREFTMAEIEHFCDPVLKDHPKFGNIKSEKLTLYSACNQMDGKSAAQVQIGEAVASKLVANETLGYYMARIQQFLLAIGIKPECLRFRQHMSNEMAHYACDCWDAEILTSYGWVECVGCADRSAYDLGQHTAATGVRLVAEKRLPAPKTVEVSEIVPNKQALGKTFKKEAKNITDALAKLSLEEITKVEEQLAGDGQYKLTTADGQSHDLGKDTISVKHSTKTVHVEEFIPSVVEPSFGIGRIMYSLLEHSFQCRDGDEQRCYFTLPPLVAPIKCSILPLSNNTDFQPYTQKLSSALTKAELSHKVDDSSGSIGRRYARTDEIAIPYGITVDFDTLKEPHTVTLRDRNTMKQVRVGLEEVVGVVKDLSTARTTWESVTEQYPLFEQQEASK
Experiment: co-IP; immunoprecipitation of dGars::EGFP with GFP-Trap (Chromotek gtm-20) from 40 CNSs of dGars::EGFP BAC transgenic third instar larvae expressing WT or mutant human GARS in neurons (nsyb-GAL4)

B1: human glycyl-tRNA synthetase, wild type (GARS_WT) (enzyme, UniProt P41250 37-739)
chain: SAASCPPISLPAAASRSSMDGAGAEEVLAPLRLAVRQQGDLVRKLKEDKAPQVDVDKAVAELKARKRVLEAKELALQPKDDIVDRAKMEDTLKRRFFYDQAFAIYGGVSGLYDFGPVGCALKNNIIQTWRQHFIQEEQILEIDCTMLTPEPVLKTSGHVDKFADFMVKDVKNGECFRADHLLKAHLQKLMSDKKCSVEKKSEMESVLAQLDNYGQQELADLFVNYNVKSPITGNDLSPPVSFNLMFKTFIGPGGNMPGYLRPETAQGIFLNFKRLLEFNQGKLPFAAAQIGNSFRNEISPRSGLIRVREFTMAEIEHFVDPSEKDHPKFQNVADLHLYLYSAKAQVSGQSARKMRLGDAVEQGVINNTVLGYFIGRIYLYLTKVGISPDKLRFRQHMENEMAHYACDCWDAESKTSYGWIEIVGCADRSCYDLSCHARATKVPLVAEKPLKEPKTVNVVQFEPSKGAIGKAYKKDAKLVMEYLAICDECYITEMEMLLNEKGEFTIETEGKTFQLTKDMINVKRFQKTLYVEEVVPNVIEPSFGLGRIMYTVFEHTFHVREGDEQRTFFSFPAVVAPFKCSVLPLSQNQEFMPFVKELSEALTRHGVSHKVDDSSGSIGRRYARTDEIGVAFGVTIDFDTVNKTPHTATLRDRDSMRQIRAEISELPSIVQDLANGNITWADVEARYPLFEGQETGKKETIEE
binding: binds
